Substitutions are numbered along the chain they refer to. Numbers in names are those of the source. No constants are given. Whether binding was seen depends on the method and setting. Some binding calls cover weakened binding; strength is not graded here. For some of these results: Sequences can lack the tags named with a protein.
B1: mouse E-cadherin-GFP, P09803 157-884 (protein)
chain: DWVIPPISCPENEKGEFPKNLVQIKSNRDKETKVFYSITGQGADKPPVGVFIIERETGWLKVTQPLDREAIAKYILYSHAVSSNGEAVEDPMEIVITVTDQNDNRPEFTQEVFEGSVAEGAVPGTSVMKVSATDADDDVNTYNAAIAYTIVSQDPELPHKNMFTVNRDTGVISVLTSGLDRESYPTYTLVVQAADLQGEGLSTTAKAVITVKDINDNAPVFNPSTYQGQVPENEVNARIATLKVTDDDAPNTPAWKAVYTVVNDPDQQFVVVTDPTTNDGILKTAKGLDFEAKQQYILHVRVENEEPFEGSLVPSTATVTVDVVDVNEAPIFMPAERRVEVPEDFGVGQEITSYTAREPDTFMDQKITYRIWRDTANWLEINPETGAIFTRAEMDREDAEHVKNSTYVALIIATDDGSPIATGTGTLLLVLLDVNDNAPIPEPRNMQFCQRNPQPHIITILDPDLPPNTSPFTAELTHGASVNWTIEYNDAAQESLILQPRKDLEIGEYKIHLKLADNQNKDQVTTLDVHVCDCEGTVNNCMKAGIVAAGLQVPAILGILGGILALLILILLLLLFLRRRTVVKEPLLPPDDDTRDNVYYYDEEGGGEEDQDFDLSQLHRGLDARPEVTRNDVAPTLMSVPQYRPRPANPDEIGNFIDENLKAADSDPTAPPYDSLLVFDYEGSGSEAASLSSLNSSESDQDQDYDYLNEWGNRFKKLADMYGGGEDD
B2: W148A IZUMO-Venus (mouse mutant IZUMO1 W148A) (protein, UniProt Q9D9J7 22-397)
chain: CIKCDQFVTDALKTFENTYLNDHLPHDIHKNVMRMVNHEVSSFGVVTSAEDSYLGAVDENTLEQATWSFLKDLKRITDSDLKGELFIKELLWMLRHQKDIFNNLARQFQKEVLCPNKCGVMSQTLIACLKCEKQLHICRKSLDCGERHIEVHRSEDLVLDCLLSWHRASKGLTDYSFYRVWENSSETLIAKGKEPYLTKSMVGPEDAGNYRCVLDTINQGHATVIRYDVTVLPPKHSEENQPPNIITQEEHETPVHVTPQTPPGQEPESELYPELHPELYPELIPTVAQNPEKKMKTRLLILLTLGFVVLVASIIISVLHFRKVSAKLKNASDEVKPTASGSKSDQSLSQQMGLKKASQADFNSDYSGDKSEATEN
B3: mouse IZUMO1-Venus (protein, UniProt Q9D9J7 22-397)
chain: B2 chain with A127W
B4: mouse SPACA6 (protein, UniProt E9Q8Q8 42-339)
chain: CLFCFTTYEERLRVCQLFVGREETKINLCRNELEGAFEDLKDMKINYDERSYLHDEFTQMTVSLQEKAARRREPFWLAFKDAAAKLKRTIEHLKKAPACIPPCGLQEVARLFHCSGCFSKLCDLPLDCPVQDMLVNRGDQALFSCIVAFELPESEITYSWKFVGGVRTKDVTYFRDMPGAHGYLARIRPVQPKHGGTFSCVILHDQRPLARLYFYLNVTGPPPPEDTELQVTFREVMNRTPAEPEMIQPWSPSLGELLTNPQALTLGNLFLLAATAALGSASVTLLVWLFFRWYLSGN

Legend:
[1] = target: T1, mouse E-cadherin-GFP (mouse), P09803; experiment: live imaging-based adhesion molecule (LIAM) assay; BHK cells expressing E-cadherin-GFP (no inducible system); time-lapse confocal imaging; accumulation at the contact interface of adjacent expressing cells; conditions: remark: other sources report otherwise
T1 chain: B1 chain

[2] = target: T2, mouse mCherry-JUNO (mouse) (UniProt Q9EQF4); experiment: live imaging-based adhesion molecule (LIAM) assay; BHK cells, non-inducible expression (cytomegalovirus promoter); separately transfected cells mixed in equal amounts 4 h after transfection, incubated 20 h, imaged every 6 min for 12 h at 40x, 37 °C, 5% CO2; read-outs: accumulation at the cell interface and translocation to the opposite cell, % of contacting cell pairs
T2 sequence: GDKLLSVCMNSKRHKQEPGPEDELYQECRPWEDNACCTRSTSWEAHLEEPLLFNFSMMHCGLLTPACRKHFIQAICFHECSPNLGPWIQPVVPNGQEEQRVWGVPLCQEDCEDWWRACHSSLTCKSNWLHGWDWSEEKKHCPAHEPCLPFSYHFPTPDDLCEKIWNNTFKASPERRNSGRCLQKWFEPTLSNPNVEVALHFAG

[3] = target: T3, mCherry-W62A JUNO (mouse mutant JUNO W62A) (mouse) (UniProt Q9EQF4); experiment: as above
T3 sequence: T2 sequence with W43A

| Binder | binding [2] | also measured |
| --- | --- | --- |
| B1 | – | binding [1]: binds |
| B2 | no binding | – |
| B3 | – | binding [3]: no binding |
| B4 | no binding | – |

Source: PMC9187738
